Data on 42 sequences can be found in PMC7819943, “Rice protein-binding microarrays: a tool to detect cis-acting elements near promoter regions in rice”.

Protein sequences, listed by entry. Tags and fused reporters are not part of them.
UniProt Q0JBA9, entry or part of it: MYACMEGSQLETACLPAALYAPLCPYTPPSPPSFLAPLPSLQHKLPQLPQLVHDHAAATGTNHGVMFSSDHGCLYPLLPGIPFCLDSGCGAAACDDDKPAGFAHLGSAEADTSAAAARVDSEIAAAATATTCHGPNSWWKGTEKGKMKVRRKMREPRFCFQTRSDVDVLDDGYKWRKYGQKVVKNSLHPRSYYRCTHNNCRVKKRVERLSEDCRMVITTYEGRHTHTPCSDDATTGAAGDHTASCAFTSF

The other results are listed elsewhere or left out.

This experiment concerns the target OsWRKY34 (Oryza sativa, UniProt Q0JBA9 1-250). Briefly: protein-binding microarray (RPBM); PBS, 2% BSA, 51.3 ng/ul salmon testes DNA, 50 uM zinc acetate, 200 nM TF, 25 C, 1 h; high values mean tight binding. The conditions noted are these: protein: recombinant; tags: N-terminal polyhistidine and DsRed monomer fusion (pET32a); label: CyDye5-dUTP incorporated in the synthesized complementary strand; 3' TTTTT single-stranded linker to array surface; dsDNA, one strand shown. A digest of the protocol: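 Binding signal is defined as the fluorescence intensity of each feature in arbitrary units, read on an Axon 4000B scanner. Transcription factors with N-terminal polyhistidine and DsRed fusions came from E. coli BL21-CodonPlus and were purified on Ni–NTA. They were incubated at 200 nM for 1 h at 25 °C on a custom Agilent array that had been made double-stranded with Cy5-dUTP, with 50 µM zinc acetate present, and the array was washed.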
On to “ATAGTGTTACCTGTTCCAACATATTACCCAAATACACAACCGGAGTCACCTAGTGCAG”, for which the binding signal was 8560 fluorescence intensity (a.u.). Then “AATTATTCACACGCTAATGGACCGCTCCGTTTTCCGTGTTCGGAGTCACCTAGTGCAG”, with 12600 fluorescence intensity (a.u.). For the sequence “GGGGTGAGGGTACGTTCGTTGTGAGTGTCTACGTTGTACTCGGAGTCACCTAGTGCAG”, the binding signal was 10700 fluorescence intensity (a.u.). Then “CTAAGGGTGCGTTTGTTTCAGCAGTTGTGTGGGGATTTTCCGGAGTCACCTAGTGCAG”, with 12700 fluorescence intensity (a.u.); and “TGCCTGTCTGCCATTTCTCTCCATCTCGGTCTGTAAAATGCGGAGTCACCTAGTGCAG”, with 8610 fluorescence intensity (a.u.); and “ACCTAGAATCTTTCTTGATCAAACTTCCCTTTGGTTCCCTCGGAGTCACCTAGTGCAG”, with 8810 fluorescence intensity (a.u.). Under “AACACCAATCGAACACCTTGTGGGCGTCCTGTAGCTATCCCGGAGTCACCTAGTGCAG” stands 8360 fluorescence intensity (a.u.); under “TAACTGATTTTTCTTTATCCCTTTGCATGCCTAATCTGATCGGAGTCACCTAGTGCAG”, 12200 fluorescence intensity (a.u.); under “CACCGTTGATTTTTTAGCACATGTTTGACCGTTCGTCTTACGGAGTCACCTAGTGCAG”, 12900 fluorescence intensity (a.u.). Turning to “CTAACCCACGCCGCGCCGGCCGCCGGACGCCACTGCTCCGCGGAGTCACCTAGTGCAG”, the binding signal was 8430 fluorescence intensity (a.u.). Under “GTCCACTACCTCTAGTTAGTTTCAGTTTCCTTGCCGTAGTCGGAGTCACCTAGTGCAG” stands 11400 fluorescence intensity (a.u.); under “CACTACATTCTACATTTCTTTTGCATTCTCTGGTGGGTTTCGGAGTCACCTAGTGCAG”, 9300 fluorescence intensity (a.u.). Then “TCGCGGCCATCACGTTAGCAGCCCACTCGCTCGCTCGCTCCGGAGTCACCTAGTGCAG”, with 8480 fluorescence intensity (a.u.); and “TGCACTTCCTATGTCTCATCCCAGTTTTTCACTTCAACAACGGAGTCACCTAGTGCAG”, with 11900 fluorescence intensity (a.u.); and “CCCCACTGGCCTGTCTCCAATCTTGAGCAGTTCTCTCTTGCGGAGTCACCTAGTGCAG”, with 8400 fluorescence intensity (a.u.).

“CGAACGGTCAAACATGTTTAAAAAAGTCAACGGCGTCAAACGGAGTCACCTAGTGCAG”: the binding signal was 15300 fluorescence intensity (a.u.). Under “CAAACTCCGATGTTTGACTACTGACCTCTAGAGATAGTACCGGAGTCACCTAGTGCAG” stands 9870 fluorescence intensity (a.u.); under “CCCGTCAGTGCTTACGCTGTTAGCCTGTTACGGCAGCTGCCGGAGTCACCTAGTGCAG”, 9340 fluorescence intensity (a.u.).

Take “TCTATTTCTTCAACCCCTTAATAATGTTGTTCTTCGCATCCGGAGTCACCTAGTGCAG”: the binding signal is 8830 fluorescence intensity (a.u.).

Regarding “ATTCCTCTAAAATTTATCAAGTTTTGGTTCGTTCCATTGACGGAGTCACCTAGTGCAG”, the binding signal was 8450 fluorescence intensity (a.u.).

For “TTGTCTTCCTTTGTTTCGACTGGTCCAGTTTCGTCCTCTCCGGAGTCACCTAGTGCAG”, the binding signal was 10300 fluorescence intensity (a.u.). For the sequence “TTCTTTTTCTTACCTATGTTTGAATACTTTTGCATGTAATCGGAGTCACCTAGTGCAG”, the binding signal is 9780 fluorescence intensity (a.u.). For “GCAGCGACGACATCTGACGGCCTCACCTACCTTTCGGTCTCGGAGTCACCTAGTGCAG”, the binding signal was 8460 fluorescence intensity (a.u.). Under “TTCGTTGTCTCGCCCCGCGGTGGGCAGGTTGCGCGCCACTCGGAGTCACCTAGTGCAG” stands 8130 fluorescence intensity (a.u.); under “ACTCGCTGTACTCTTAAGTAATACTTAACTGTCTCTGTAGCGGAGTCACCTAGTGCAG”, 9570 fluorescence intensity (a.u.).

Take “GAAATTAGGACTTCAGCTTTTCCATATTCTTATAATCTTACGGAGTCACCTAGTGCAG”: the binding signal was 8770 fluorescence intensity (a.u.). Under “CGCGCCGCCATGCCCTCTTCTCTTCATTCCTCGCGCGCGCCGGAGTCACCTAGTGCAG” stands 9980 fluorescence intensity (a.u.). Under “TTTGTTTTTTTTGCTTATTTAGTTTTTTTTTCAGCTTTTTCGGAGTCACCTAGTGCAG” stands 17300 fluorescence intensity (a.u.); under “ACGGGTACTATTCACTGTCTGATTTTATTATTTTTGTTTCCGGAGTCACCTAGTGCAG”, 12900 fluorescence intensity (a.u.); under “AGTAGCGTTACCTGTCGTACGAGTTATATTTTTCTTCCTTCGGAGTCACCTAGTGCAG”, 10600 fluorescence intensity (a.u.). Under “GCCTCAATTTTCACCTACTCCACCTTGATCCACCTCGATCCGGAGTCACCTAGTGCAG” stands 13200 fluorescence intensity (a.u.); under “GTTCCCTTTGCAAACCAGCTGGCAACCATCTATCCAATATCGGAGTCACCTAGTGCAG”, 9180 fluorescence intensity (a.u.). Take “TGTTGTTGTTGTTGTGGATGGTTGGTAATGGCGGCATGGTCGGAGTCACCTAGTGCAG”: the binding signal was 9120 fluorescence intensity (a.u.). Then “TATTTCTGAGTTTAACTTTTGTACCTGGGTTTTTCCTAGCCGGAGTCACCTAGTGCAG”, with 9310 fluorescence intensity (a.u.); and “ACATTTCCTCGCCGTTACCCGCATAATTTCCTCGAGCCGCCGGAGTCACCTAGTGCAG”, with 14300 fluorescence intensity (a.u.). Under “ATGTCCGTGGTTATATTATTTTCCTGATTCTGAGTATGAACGGAGTCACCTAGTGCAG” stands 10600 fluorescence intensity (a.u.). Regarding “GCCTCTCCACCAATCAGCGCCCACTTTTACCCACTATAAACGGAGTCACCTAGTGCAG”, the binding signal is 8560 fluorescence intensity (a.u.). For the sequence “TTCTACCCCTTTTCTCCTCCGCTTCCTTTTACTTGGCTTGCGGAGTCACCTAGTGCAG”, the binding signal was 8420 fluorescence intensity (a.u.). Under “GGTGTTTTGGTACGTCATCTGTGTATGAGTCGGTTTTCAACGGAGTCACCTAGTGCAG” stands 8300 fluorescence intensity (a.u.); under “TCTCCCACGATTCGCCTTACATGTTTATTACACGCCATGACGGAGTCACCTAGTGCAG”, 10700 fluorescence intensity (a.u.); under “TATCAGGCACAACTTTGACATTTTTTCTCTGTACACATAACGGAGTCACCTAGTGCAG”, 8140 fluorescence intensity (a.u.). In the case of “TCCATGCATGCTTTGCCTAGCTTTTTTCCAAGTTCTTTTTCGGAGTCACCTAGTGCAG”, the binding signal was 9450 fluorescence intensity (a.u.).
